# Experimental data taken from the supplement of paper PMC8728848.
# The other results are listed elsewhere or left out.
# Experiments:
# Test in all cases: glycan array binding signal (z-score within array); higher = stronger binding
# Details in all cases: glycan notation: IUPAC condensed, linker removed
# [1] = target: Fuc(a1-2)[Gal(a1-3)]Gal(b1-4)GlcNAc(b1-2)Man(a1-3)[Fuc(a1-2)[Gal(a1-3)]Gal(b1-4)GlcNAc(b1-2)Man(a1-6)]Man(b1-4)GlcNAc(b1-4)GlcNAc
# Procedure, shortened: (§1)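 From the Consortium for Functional Glycomics database, 3228 arrays were curated, keeping only those whose protein sequence was available. Binding is given as a within-array Z-score averaged across arrays sharing a protein sequence and across linkers. Negative Z-scores can be read as non-binding.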
# [2] = target: Fuc(a1-2)[Gal(a1-3)]Gal(b1-4)GlcNAc(b1-2)Man(a1-3)[Fuc(a1-2)[Gal(a1-3)]Gal(b1-4)GlcNAc(b1-2)Man(a1-6)]Man(b1-4)GlcNAc(b1-4)[Fuc(a1-6)]GlcNAc
# Procedure, shortened: as §1
# [3] = target: Fuc(a1-2)[Gal(a1-3)]Gal(b1-4)GlcNAc(b1-3)GalNAc
# Procedure, shortened: as §1
# [4] = target: Fuc(a1-2)[Gal(a1-3)]Gal(b1-4)GlcNAc(b1-3)[Fuc(a1-2)[Gal(a1-3)]Gal(b1-4)GlcNAc(b1-6)]GalNAc
# Procedure, shortened: as §1
# [5] = target: Fuc(a1-2)[Gal(a1-3)]Gal(b1-4)GlcNAc(b1-6)GalNAc
# Procedure, shortened: as §1
# [6] = target: Fuc(a1-2)[Gal(a1-3)]Gal(b1-4)[Fuc(a1-3)]Glc
# Procedure, shortened: as §1
# [7] = target: Fuc(a1-2)[Gal(a1-3)]Gal(b1-4)[Fuc(a1-3)]GlcNAc
# Procedure, shortened: as §1
# [8] = target: Fuc(a1-2)[Gal(a1-3)]Gal(b1-4)[Fuc(a1-3)]GlcNAc(b1-3)GalNAc
# Procedure, shortened: as §1
# [9] = target: Fuc(a1-2)[Gal(a1-4)]Gal(b1-4)GlcNAc
# Procedure, shortened: as §1
# [10] = target: Fuc(a1-2)[GalNAc(a1-3)]Gal
# Procedure, shortened: as §1
# [11] = target: Fuc(a1-2)[GalNAc(a1-3)]Gal(b1-3)GalNAc(a1-3)[Fuc(a1-2)]Gal(b1-4)GlcNAc
# Procedure, shortened: as §1
# [12] = target: Fuc(a1-2)[GalNAc(a1-3)]Gal(b1-3)GalNAc(b1-3)Gal(a1-4)Gal(b1-4)Glc
# Procedure, shortened: as §1
# [13] = target: Fuc(a1-2)[GalNAc(a1-3)]Gal(b1-3)GlcNAc
# Procedure, shortened: as §1
# [14] = target: Fuc(a1-2)[GalNAc(a1-3)]Gal(b1-3)GlcNAc(b1-2)Man(a1-3)[Fuc(a1-2)[GalNAc(a1-3)]Gal(b1-3)GlcNAc(b1-2)Man(a1-6)]Man(b1-4)GlcNAc(b1-4)GlcNAc
# Procedure, shortened: as §1
# [15] = target: Fuc(a1-2)[GalNAc(a1-3)]Gal(b1-3)GlcNAc(b1-2)Man(a1-3)[Fuc(a1-2)[GalNAc(a1-3)]Gal(b1-3)GlcNAc(b1-2)Man(a1-6)]Man(b1-4)GlcNAc(b1-4)[Fuc(a1-6)]GlcNAc
# Procedure, shortened: as §1
# [16] = target: Fuc(a1-2)[GalNAc(a1-3)]Gal(b1-3)GlcNAc(b1-3)GalNAc
# Procedure, shortened: as §1
# [17] = target: Fuc(a1-2)[GalNAc(a1-3)]Gal(b1-3)GlcNAc(b1-6)GalNAc
# Procedure, shortened: as §1
# [18] = target: Fuc(a1-2)[GalNAc(a1-3)]Gal(b1-4)Glc
# Procedure, shortened: as §1
# [19] = target: Fuc(a1-2)[GalNAc(a1-3)]Gal(b1-4)GlcNAc
# Procedure, shortened: as §1
# [20] = target: Fuc(a1-2)[GalNAc(a1-3)]Gal(b1-4)GlcNAc(b1-2)Man
# Procedure, shortened: as §1
# [21] = target: Fuc(a1-2)[GalNAc(a1-3)]Gal(b1-4)GlcNAc(b1-2)Man(a1-3)[Fuc(a1-2)[GalNAc(a1-3)]Gal(b1-4)GlcNAc(b1-2)Man(a1-6)]Man(b1-4)GlcNAc(b1-4)GlcNAc
# Procedure, shortened: as §1
# [22] = target: Fuc(a1-2)[GalNAc(a1-3)]Gal(b1-4)GlcNAc(b1-2)Man(a1-3)[Fuc(a1-2)[GalNAc(a1-3)]Gal(b1-4)GlcNAc(b1-2)Man(a1-6)]Man(b1-4)GlcNAc(b1-4)[Fuc(a1-6)]GlcNAc
# Procedure, shortened: as §1
# [23] = target: Fuc(a1-2)[GalNAc(a1-3)]Gal(b1-4)GlcNAc(b1-3)Gal(b1-4)GlcNAc
# Procedure, shortened: as §1
# [24] = target: Fuc(a1-2)[GalNAc(a1-3)]Gal(b1-4)GlcNAc(b1-3)Gal(b1-4)GlcNAc(b1-3)Gal(b1-4)GlcNAc
# Procedure, shortened: as §1
# [25] = target: Fuc(a1-2)[GalNAc(a1-3)]Gal(b1-4)GlcNAc(b1-3)GalNAc
# Procedure, shortened: as §1
# [26] = target: Fuc(a1-2)[GalNAc(a1-3)]Gal(b1-4)GlcNAc(b1-3)[Fuc(a1-2)[GalNAc(a1-3)]Gal(b1-4)GlcNAc(b1-6)]GalNAc
# Procedure, shortened: as §1
# [27] = target: Fuc(a1-2)[GalNAc(a1-3)]Gal(b1-4)GlcNAc(b1-6)GalNAc
# Procedure, shortened: as §1
# [28] = target: Fuc(a1-2)[GalNAc(a1-3)]Gal(b1-4)[Fuc(a1-3)]GlcNAc
# Procedure, shortened: as §1
# [29] = target: Fuc(a1-2)[GalNAc(a1-3)]Gal(b1-4)[Fuc(a1-3)]GlcNAc(b1-3)GalNAc
# Procedure, shortened: as §1
# [30] = target: Fuc(a1-2)[GalNAc(a1-4)]Gal(b1-4)GlcNAc
# Procedure, shortened: as §1
binder,measurement,setting,value
"BT4246 (Bacteroides thetaiotaomicron), Q89ZX5 (protein) MGSSHHHHHHENLYFQGHMASDYLDVVPPEQPNIDDAMSSPTRALGFLYSCYGGVSTDLPSAYLGEINSTTDEYVLPYSWNTDGYWGAYAFNTASSTNQDWLWGTTYQYIGQCYLFLQKLENAGSDIASDAEKEQWRAECQFLVAYYHFATLRRYGPIPITDSYIPMDTPTSEYNGRFHFDYCVDWIANQLDEAAKVLPANRTVTNEWGRATSTIAKAVKARLLLYAASPLWNGSFPYPNWQNENFETPGYGKALVSNTYDKSKWERALAACQEALTLATTSGDRELYDDDEYYSRQSLNLPFVPGVADVEDNKEFLKNVMKMRYAVSTRESEGNKEIIWGLSNQFDFYSRYPLRILKKSDGTWHAGYSGVSPTLYTFEHFYTANGKLPEKDLDFTPSSEWFESAGISSREDIIKLNVGREPRFYAWMAFDGGDYGTKFAAGSPLKLEMRNSEMHGYNPSLFNRDHSVTGFLTQKFVDPVTEFYTAGGSTSGTSAPTILFRLAELYLNVAECHAALGNTQEAIDALNPVRERAGIPKLTLADITNNMTIKDWVHNERFVELWNEGHRFFDVRRWAEGAKYFGANKREGLNAEVQSPTFEEFNKRTTVDAPYVWENRMYLNPVFYNEVYKNPQMVQAPGY",glycan array binding signal (z-score),[1],2.43
same,glycan array binding signal (z-score),[2],-1.11
same,glycan array binding signal (z-score),[3],1.88
same,glycan array binding signal (z-score),[4],-0.949
same,glycan array binding signal (z-score),[5],0.41
same,glycan array binding signal (z-score),[6],-0.611
same,glycan array binding signal (z-score),[7],1.18
same,glycan array binding signal (z-score),[8],-0.469
same,glycan array binding signal (z-score),[9],-0.605
same,glycan array binding signal (z-score),[10],-1.02
same,glycan array binding signal (z-score),[11],-0.798
same,glycan array binding signal (z-score),[12],-1.28
same,glycan array binding signal (z-score),[13],0.796
same,glycan array binding signal (z-score),[14],-0.214
same,glycan array binding signal (z-score),[15],-0.772
same,glycan array binding signal (z-score),[16],0.196
same,glycan array binding signal (z-score),[17],-1.32
same,glycan array binding signal (z-score),[18],0.594
same,glycan array binding signal (z-score),[19],-0.759
same,glycan array binding signal (z-score),[20],-0.729
same,glycan array binding signal (z-score),[21],0.541
same,glycan array binding signal (z-score),[22],-0.126
same,glycan array binding signal (z-score),[23],2.16
same,glycan array binding signal (z-score),[24],0.74
same,glycan array binding signal (z-score),[25],-0.018
same,glycan array binding signal (z-score),[26],0.94
same,glycan array binding signal (z-score),[27],-0.679
same,glycan array binding signal (z-score),[28],-2.1
same,glycan array binding signal (z-score),[29],-0.568
same,glycan array binding signal (z-score),[30],0.527

# A stretch from the list above, for reference:
binder,measurement,setting,value
"BT4246 (Bacteroides thetaiotaomicron), Q89ZX5 (protein) MGSSHHHHHHENLYFQGHMASDYLDVVPPEQPNIDDAMSSPTRALGFLYSCYGGVSTDLPSAYLGEINSTTDEYVLPYSWNTDGYWGAYAFNTASSTNQDWLWGTTYQYIGQCYLFLQKLENAGSDIASDAEKEQWRAECQFLVAYYHFATLRRYGPIPITDSYIPMDTPTSEYNGRFHFDYCVDWIANQLDEAAKVLPANRTVTNEWGRATSTIAKAVKARLLLYAASPLWNGSFPYPNWQNENFETPGYGKALVSNTYDKSKWERALAACQEALTLATTSGDRELYDDDEYYSRQSLNLPFVPGVADVEDNKEFLKNVMKMRYAVSTRESEGNKEIIWGLSNQFDFYSRYPLRILKKSDGTWHAGYSGVSPTLYTFEHFYTANGKLPEKDLDFTPSSEWFESAGISSREDIIKLNVGREPRFYAWMAFDGGDYGTKFAAGSPLKLEMRNSEMHGYNPSLFNRDHSVTGFLTQKFVDPVTEFYTAGGSTSGTSAPTILFRLAELYLNVAECHAALGNTQEAIDALNPVRERAGIPKLTLADITNNMTIKDWVHNERFVELWNEGHRFFDVRRWAEGAKYFGANKREGLNAEVQSPTFEEFNKRTTVDAPYVWENRMYLNPVFYNEVYKNPQMVQAPGY",glycan array binding signal (z-score),[17],-1.32
same,glycan array binding signal (z-score),[18],0.594
